{
  "source": "paper PMC6035379",
  "about": "(Journal of Ginseng Research, 2017)",
  "type": "in vivo, rats",
  "key": {"[1]": {"conditions": "rats, fexofenadine 10 mg/kg oral, control group"}},
  "note": "Counter-ions that a name gives are not always drawn.",
  "data": [
    {"smiles": "CC(C)(C(=O)O)c1ccc(C(O)CCCN2CCC(C(O)(c3ccccc3)c3ccccc3)CC2)cc1", "note": "(stereo not shown) [fexofenadine, Fexofenadine hydrochloride]", "values": [
      {"measurement": "AUC(0-t)", "setting": "male, Sprague-Dawley, rat, plasma, po, 10 mg/kg", "result": 138, "unit": "ng·h/mL"},
      {"measurement": "second plasma peak concentration", "setting": "[1]", "result": 18, "unit": "ng/mL"},
      {"measurement": "time of first plasma peak", "setting": "[1]", "result": 0.5, "unit": "h"},
      {"measurement": "time of second plasma peak", "setting": "[1]", "result": "2 to 3", "unit": "h"}
    ]}
  ]
}
